# Primary screen of a compound library

Source: ChEMBL document CHEMBL3988442, “University of Dundee, Small-Polar-MMV Screening Library” (2021).

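Viability assay of Plasmodium falciparum sporozoites; the read-out is not stated. The concentration is filed as 10 mM, unlikely as a test dose, so the dose is not known. Direction is inferred from retests: higher values go with lower viability. Strong results were mostly tested again. Size under these conditions: about 34,000 compounds, about 280 of them at 50% or above in at least one test.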

Results are given as percent effect. The record does not define 0% and 100%; most values in the screen are far below 50% and negative numbers occur (in some assays of this library far below -100). This is an unselected part of the compounds tested. Two or more numbers in one place are separate tests of the same structure; such repeats can differ widely.

* CC(C)(C)c1cc(C(=O)N2CCOC(c3cnccn3)C2)[nH]n1 (centres undefined) : -1.489%
* CC[C@@H](CO)NC(=O)c1coc(COc2ccc(OC)cc2)n1 : -23.53%
* CN(Cc1ccsc1)C(=O)COC(=O)c1cc(Cl)c[nH]1 : -2.106%
* COc1c(CNCC(c2cccc(F)c2)N(C)C)c(C(C)C)nn1C (centres undefined) : 25.2%
* COCCn1ccc(NC(=O)Nc2ccncc2)n1 : -10.12%
* Cn1ncc2c1CCCN(C(=O)C1CCCC1)C2 : -0.4508%
* [H][C@@]12CCN(Cc3ccccn3)C[C@@]1([H])O[C@@H](C)C2 : -17.83%
* CC(C)c1noc(CN2CCN(C(=O)c3cc(Cl)ccc3F)CC2)n1 : 4.448%
* CC1(C(=O)N2CCOCC2)CN(Cc2ccccc2F)CCO1 (centres undefined) : -8.42%
* CN(Cc1noc(C2CC2)n1)C1CCN(Cc2ccc(F)c(F)c2)C1 (centres undefined) : 7.052%
* COCCN1CCN(Cc2cccc(C(N)=O)c2)CC1C (centres undefined) : -1.225%
* O=C(O)C(F)(F)F.[H][C@@]12CN(Cc3nccs3)C[C@@H](C(=O)N3CCOCC3)[C@]1([H])CCO2 : 4.08%
* CNc1ccnc(NCC(=O)Nc2cc(C)ccc2OC)n1 : -7.231%
* Cc1ncccc1Oc1nccnc1C1CCN(C(C)C)CC1 : -17.65%
* O=C(NC1CC1)C1CCN(c2nc3nc[nH]c(=O)c3s2)CC1 : -1.007%
* COC(=O)NCC1CCC2(CCNCC2)O1.Cl (centres undefined) : 17.45%
* CC(C)NC(=O)N1CCc2ncnc(-c3ccncc3)c2CC1.O=C(O)C(F)(F)F : 12.13%
* CC(C)c1cc(C(=O)N2CC[C@@H](c3ccc4c(c3)OCO4)[C@H](O)C2)[nH]n1 : -26.36%
* Cc1[nH]ccc1C(=O)N1CCC(c2nnc(Cn3ccnc3)n2C)CC1 : 7.764%
* CC1CN(C(=O)CN(Cc2ccccc2Cl)C2CCCC2)CCO1 (centres undefined) : 5.952%
* CCc1nc(CN(C)C2CCN(CCOc3ccccc3)C2)no1 (centres undefined) : 3.916%
* Cc1ccc(OCc2nc(CNCC3CN(C)CCO3)cs2)cc1 (centres undefined) : -16.33%
* Fc1cccc(-n2ccc(CN3CCCCC3Cn3cncn3)n2)c1 (centres undefined) : -6.892% & -11.25% & -1.891%
* O=C(O)C(F)(F)F.O=C(O)C(F)(F)F.c1cnc(N2CCOC3(CCN(CC4CCCCC4)CC3)C2)nc1 : 4.037%
* CN(C(=O)Cc1ccc(F)cc1)C1CCN(c2ccccn2)CC1 : -20.83%
* O=C(c1ccc(C2CCCO2)s1)N1CCCOCC1 (centres undefined) : -9.696% & -7.572%
* CCCN1CCC(c2nc3ccc(C)cn3n2)CC1.O=C(O)C(F)(F)F : 6.582%
* CCN(C)c1ccc(C(=O)N(CCOC)Cc2ccccn2)cc1 : -5.794%
* Cc1ccc(CC(=O)N2CCN(CC(O)C(C)(C)C)CC2)cn1 (centres undefined) : -3.476%
* C[C@@H]1CN(C(=O)c2ccccc2F)C[C@]12CCN(CCN(C)C)C2=O : 3.069%
* COc1cc(CN(C)C(=O)NC2CC2)ccc1SC : 8.402%
* Cc1cc(CN(C)C(=O)C(c2ccccc2)N2CCSCC2)no1 (centres undefined) : -1.961%
* CC(CNC(=O)c1cc(N2CCNC2=O)ccc1F)c1ccccc1 (centres undefined) : 35.08% & 63.14%
* C=C(C)CN1CCN(Cc2cnc(-c3ccccc3C)nc2)CC1.O=C(O)CC(O)(CC(=O)O)C(=O)O : 1.215%
* Cc1noc(CCCC(=O)N(CC2CCOC2)C2CC2)n1 (centres undefined) : 3.885%
* [H][C@@]12CN(c3cccnc3)CC[C@]1([H])CN(c1ncccn1)C2 : 3.833%
* COc1cccc(-n2c(C)cc(C(=O)NS(C)(=O)=O)c2C)c1 : -0.9046%
* CCOCc1nc(N2CCCC2)sc1C(=O)NCc1ccco1 : 27.48%
* CO[C@@H]1CCN(Cc2nccs2)C[C@@H]1Cc1ccccc1.O=C(O)C(F)(F)F : 22.73%
* CC(=O)N1CCC(c2nc(C)cc(-c3ccccc3C(=O)O)n2)CC1 : 3.206%
* COc1ccccc1[S+]([O-])CC(=O)NCc1cc(F)cc(F)c1 (centres undefined) : -30.97%
* [H][C@@]12CCN(C(=O)COC)C[C@@]1([H])O[C@H](c1nnc(C3CC3)o1)C2 : 4.87%
* CC(C)OCCCN1CCCC(c2nc3ccccc3n2C(C)C)C1 (centres undefined) : -6.088%
* CC(C)OCCCNC(=O)CN1C=Nc2ccccc2S1(=O)=O : 5.117%
* O=C(O)C(F)(F)F.O=C(O)C(F)(F)F.[H][C@@]12OCCN(Cc3ccsc3)[C@@]1([H])CC[C@H]2OCc1ccccn1 : -13.24%
* COc1cc(N2CCC3(C2)CN(c2cccnc2)C(=O)CN3C)ncn1 (centres undefined) : 12.69%
* COc1ccccc1CN1CCC2(CCC(C(=O)N(C)C)O2)CC1 (centres undefined) : 9.72%
* O=C(CCN1CCOC(CNc2cccnn2)C1)NC1CCCCC1 (centres undefined) : 14.35%
* COc1cc(CNCC(O)c2ccccc2F)cc2c1OCO2 (centres undefined) : 11.36%
* Cc1nccn1-c1cc(CNC(=O)C(C)(C)C)ccn1 : -9.091%
* COc1c(CNCc2ccccc2CO)c(C)nn1C : -15.1%
* CCOc1cccc(C(=O)NCCC(=O)NCc2ccncc2)c1 : 17.82%

Some entries from above, unchanged:

| Compound | effect |
|---|---|
| `Fc1cccc(-n2ccc(CN3CCCCC3Cn3cncn3)n2)c1` (centres undefined) | -6.892 & -11.25 & -1.891 |
| `O=C(NC1CC1)C1CCN(c2nc3nc[nH]c(=O)c3s2)CC1` | -1.007 |
| `COc1cc(CN(C)C(=O)NC2CC2)ccc1SC` | 8.402 |
| `COCCN1CCN(Cc2cccc(C(N)=O)c2)CC1C` (centres undefined) | -1.225 |
| `CNc1ccnc(NCC(=O)Nc2cc(C)ccc2OC)n1` | -7.231 |
| `CC(C)NC(=O)N1CCc2ncnc(-c3ccncc3)c2CC1.O=C(O)C(F)(F)F` | 12.13 |